The results in this text go back to patent publication US20230365651A1.

Results are given in words; binding and its absence hold for the method and conditions named. A result given as binding can be weak or reduced; the word gives no strength.

B1: … (SEQ ID NO: 112) (peptide)
peptide: TVTGAEQIQY
B2: … (SEQ ID NO: 291) (peptide)
peptide: ETIRSVGYY
B3: … (SEQ ID NO: 31) (peptide)
peptide: LLDEGAMLLY
B4: … (SEQ ID NO: 115) (peptide)
peptide: FVDNQYWRY
B5: … (SEQ ID NO: 290) (peptide)
peptide: DMDEEIEAEY
B6: … (SEQ ID NO: 114) (peptide)
peptide: VMEQSAGIMY
B7: … (SEQ ID NO: 113) (peptide)
peptide: QLDSNRLTY
B8: … (SEQ ID NO: 116) (peptide)
peptide: VLLDEGAMLLY
B9: … (SEQ ID NO: 288) (peptide)
peptide: SPVTSVHGGTY
B10: … (SEQ ID NO: 292) (peptide)
peptide: NVTMKVVSVLY
B11: … (SEQ ID NO: 289) (peptide)
peptide: RWEKTDLTY
B12: … (SEQ ID NO: 255) (peptide)
peptide: VFVSFSSLF
B13: … (SEQ ID NO: 252) (peptide)
peptide: LYQPRASEM
B14: … (SEQ ID NO: 82) (peptide)
peptide: SYFRGFTLI
B15: … (SEQ ID NO: 81) (peptide)
peptide: VYNHTTRPL
B16: … (SEQ ID NO: 249) (peptide)
peptide: VYTPTLGTL
B17: … (SEQ ID NO: 246) (peptide)
peptide: RYLAVVHAVF

In one assay the target is HLA-A*01:01 (human). Nature of the assay: UV peptide exchange, anti-b2m ELISA. Background: An ELISA detects its analyte on a solid surface through an enzyme-linked reagent.
Turning to B1, the binding entry was “binds”.
Still for that read-out and setting: next, B2: “binds”.
On the same count and under the same terms, the entry for B3 is “binds”; for B4 it is “binds”.
On the same count and under the same terms, the entry for B5 is “binds”.
Consider B6, for which the binding entry is “binds”.
On the same count and under the same terms, next, B7: “binds”; B8: “binds”; B9: “binds”.
Still for that read-out and setting: next, B10: “binds”; B11: “binds”.

The target of another assay is HLA-A*24:02 (human). Put plainly: UV peptide exchange, anti-b2m ELISA.
Take B12: the binding entry is on record as “binds”.
The same measure, in the same setting: next, B13: “binds”; B14: “binds”.
Still for that read-out and setting: next, B15: “binds”.
Same read-out and setting: next, B16: “binds”; B17: “binds”.
